Reference: the supplement of paper PMC4683952
This is one part of the list. Rule as the data show it: active = 2 or more and inactive = the rest. This data set is noisy: repeats of one test often differ as much as different tests do.

system: Lgr5 (MarsCy1-Lgr5-EGFP, U2OS); test: cell-surface Lgr5 expression (SCi1 fluorescence, background-subtracted) relative to WT DMSO (fold of DMSO control); higher = more Lgr5 at the plasma membrane; details: U2OS MarsCy1-Lgr5-EGFP stable; treatment time: overnight; library: ActiProbe-5K (TimTec); 25 µM

SMILES	cell-surface Lgr5 expression
Nc1nc2c(s1)COc1ccccc1-2	inactive: 0.923
O=C(/C=C/N1CCCCC1)c1cccs1	inactive: 1.13
CS(=O)(=O)N1CCN(c2ccc([N+](=O)[O-])cc2Cl)CC1	inactive: 1.11
COc1ccc2c(c1OC)C(=O)N1C(C(=O)O)CSC21 (configuration not stated)	inactive: 1.65
COc1ccc(OC)c(S(=O)(=O)NCCOC23CC4CC(CC(C4)C2)C3)c1	inactive: 0.832
Clc1ccc(/C=N\N=c2\[nH]c(-c3ccccc3)cs2)cc1	inactive: 1.77
CSc1nc(SCC(=O)C(C)C)nc(N)c1C#N	inactive: 1.12
C1CCCCC(NC(C2C(CC=CC2)C(C\C(=C(\Cl)Cl)Cl)=O)=O)C1 (configuration not stated)	inactive: 1.14
CCCCOCC(S)CNC(N)=O (configuration not stated)	inactive: 1.07
Cc1cc(=O)cc(C)n1NC(N)=S	inactive: 0.996
FC(F)(F)c1ccc(/C=N/n2c(S)nnc2-c2ccco2)cc1	inactive: 1.07
C1(/C2CC3CC(C2)CC1C3)=C\C(=O)N	inactive: 1.35
N#C/C(=C\Nc1ncccc1Cl)C(N)=S	inactive: 1.09
CC(=O)CSc1sc2c(O)cc(=O)[nH]c2c1C#N	inactive: 1.14
c1c(-c2csnn2)cc(-c2csnn2)cc1-c1csnn1	inactive: 1.92
O=S(=O)(c1ccc2ccccc2c1)N1CCSC1c1ccccc1 (configuration not stated)	inactive: 1.44
s1cc(cc1/C=C(\C#N)C#N)CSc1nnc(s1)N	inactive: 1.57
CCCCCCCCCCCCCCCCCC(=O)NCC1CCCO1 (configuration not stated)	inactive: 1.07
Cc1cc(=O)n2nc(S(C)(=O)=O)nc2[nH]1	inactive: 1.27
OCCCNc1ncnc2sc3c(c12)CCC3	inactive: 0.956
CN1c2ccccc2Sc2ccccc21	inactive: 1.19
Cc1c([N+](=O)[O-])c(=O)n(C)c(=O)n1C	inactive: 0.956
c1cncc(N2CCN(c3cccnc3)CC2)c1	inactive: 1.03

Reformatted as a markdown table: 2 of the compounds above.

| SMILES | cell-surface Lgr5 expression |
| --- | --- |
| Cc1c([N+](=O)[O-])c(=O)n(C)c(=O)n1C | inactive: 0.956 |
| c1cncc(N2CCN(c3cccnc3)CC2)c1 | inactive: 1.03 |

Next results

SMILES	cell-surface Lgr5 expression
C=CCNC(=O)c1c([N+](=O)[O-])cnn1C	inactive: 1.23
C(=C\CSc1nnc(-c2ccccc2)c(-c2ccccc2)n1)/CSc1nnc(-c2ccccc2)c(-c2ccccc2)n1	inactive: 1.02
Cc1cc(C)n(-c2nc(N3CCOCC3)nc(N3CCOCC3)n2)n1	inactive: 1.09
O=C1/C(=C\c2c(N3CCOCC3)nc3ccccn3c2=O)SC(=S)N1CC1CCCO1 (configuration not stated)	inactive: 1.39
COn1c(=S)[nH]c2ccccc2c1=O	inactive: 1.14
OCC1(CO)COC(COc2ccccc2)=N1	inactive: 1.24
Cn1cccc1CC(=O)N/N=C\c1ccco1	active: 2.22
COc1cc(OC)c(/C=N\c2ccc(OC(F)(F)F)cc2)cc1Br	inactive: 0.701
S=C(Nc1ccc(Br)cc1)Nc1cccnc1	inactive: 1.11
COc1ccc(C2C3CSCC=C3C(C#N)=C(N)C2(C#N)C#N)cc1 (configuration not stated)	inactive: 1.12
O=C1NC(=O)C2C1C1C=Cc3ccccc3N1C2C(=O)c1ccc(F)cc1 (configuration not stated)	inactive: 0.997
O=C1C(=O)N(CCN2C(=O)c3ccccc3C2=O)c2ccccc21	inactive: 1.14
FC(F)(F)c1cc(-c2cccs2)nc(-n2nccc2C(F)(F)F)n1	inactive: 1.01
c1cc(-c2nnc(Nc3ccc4c(c3)OCCO4)o2)[nH]n1	inactive: 1.22
N#Cc1c(N)nc2c(c1-c1ccco1)CCCC2	inactive: 1.35
CCOC(=O)C1=C(C)NC(C)=C(C(=O)OCC)C1C(=O)O	inactive: 1.18
CCc1sc2sncc2c1Br	inactive: 1.03
CS(=O)(=O)N1CCc2cc(S(=O)(=O)N3CCN(Cc4ccc5c(c4)OCO5)CC3)ccc21	inactive: 1.06
O=C(CCCC(=O)N/N=C/c1ccc([N+](=O)[O-])o1)N/N=C\c1ccc([N+](=O)[O-])o1	inactive: 1.83
Brc1ccc2ncnc(N3CCCCC3)c2c1	inactive: 0.324
CNS(=O)(=O)c1ccc(Br)s1	inactive: 0.988
Cc1cc(C)c(C2C3CCC=C3C(C#N)=C(N)C2(C#N)C#N)c(C)c1 (configuration not stated)	inactive: 1.34
Nc1nc(=O)cc(Cl)[nH]1	inactive: 0.868

SMILES	cell-surface Lgr5 expression
O=C1/C(=C/C=C/C2=C(O)c3ccccc3S2(=O)=O)S(=O)(=O)c2ccccc21	inactive: 1.26
Oc1c(Br)cc(Br)cc1/C=N\c1cc(Cl)ccc1Cl	inactive: 1.04
NNC(=O)C1CC2CC1CC2C(=O)NN (configuration not stated)	inactive: 1.24
O=[N+]([O-])c1ccc(OS(=O)(=O)N2CCCC(C(F)(F)F)C2)cc1 (configuration not stated)	inactive: 1.29
N#Cc1c(NC(=S)Nc2ccccc2)sc2c1CCC2	inactive: 0.964
Cc1ccc(NC(=O)OC(C)(C)C)s1	inactive: 1.24
COC(=O)CSc1sc2c(O)nc(=O)[nH]c2c1C#N	inactive: 0.996
NC1=NN=C(c2ccc3c(c2)OCCO3)CS1	inactive: 0.813
CC1=C(C)SC(=C2Sc3nc(O)[nH]c(=O)c3S2)S1	inactive: 1.05
Cn1c(=O)c2c(nc3n(CCO)c(C45CC6CC(CC(C6)C4)C5)cn23)n(C)c1=O	inactive: 1.19
CN(CC12CC3CC(CC(C3)C1)C2)S(=O)(=O)c1ccc2sc(=O)[nH]c2c1	inactive: 1.09
CC(C)NC(=O)C(=O)NC1CC(C)(C)NC(C)(C)C1	inactive: 1.16
CCC(C)C(=O)NCC1CCCO1 (configuration not stated)	inactive: 1.08
C(=N/c1ccc2c(c1)OCCO2)/c1ccc(OC2CSC2)cc1	inactive: 0.937
C#CCSc1nc(C)cc(C)c1C#N	inactive: 1.17
CC1(C(=O)O)COCOC1	inactive: 1.29
c1ccc2c(CSc3nc4ccccc4o3)cccc2c1	inactive: 1.39
O=c1c2cc(O)ccc2oc2ccc(O)cc12	inactive: 1.4
CCc1c(C)[nH]n(-c2nnn[nH]2)c1=O	inactive: 1.13
O=S(=O)([O-])C/C(=C\c1ccc(Cl)cc1)c1cc[n+](CCO)cc1	inactive: 1.24
CC1=C(N(C)CS(=O)(=O)[O][Na])CN(c2ccccc2)N1C.O	inactive: 1.1

Molecules above with a cyano group:
SMILES	cell-surface Lgr5 expression
CSc1nc(SCC(=O)C(C)C)nc(N)c1C#N	inactive: 1.12
N#C/C(=C\Nc1ncccc1Cl)C(N)=S	inactive: 1.09
CC(=O)CSc1sc2c(O)cc(=O)[nH]c2c1C#N	inactive: 1.14
s1cc(cc1/C=C(\C#N)C#N)CSc1nnc(s1)N	inactive: 1.57
COc1ccc(C2C3CSCC=C3C(C#N)=C(N)C2(C#N)C#N)cc1 (configuration not stated)	inactive: 1.12
N#Cc1c(N)nc2c(c1-c1ccco1)CCCC2	inactive: 1.35
Cc1cc(C)c(C2C3CCC=C3C(C#N)=C(N)C2(C#N)C#N)c(C)c1 (configuration not stated)	inactive: 1.34
N#Cc1c(NC(=S)Nc2ccccc2)sc2c1CCC2	inactive: 0.964
COC(=O)CSc1sc2c(O)nc(=O)[nH]c2c1C#N	inactive: 0.996
C#CCSc1nc(C)cc(C)c1C#N	inactive: 1.17
